Values are relative to the signal before dosing, not to a vehicle control; the signal also falls without drug.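 Fibroblast labels denote human fibroblasts, mainly primary ones from uterus (C12385, HUF), lung (H6013), bone (Hs27A), adrenal (HADF) and skin (WS1), plus mammary HMF and breast cancer-associated Hs343T. Cancer cells are basal-like or mesenchymal-like triple-negative breast cancer lines. A hit is a response shift exceeding 3x replicate standard deviation. The tissue of the other fibroblasts is not given here.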
Tested on: MDAMB436
Test: relative JC-1 red fluorescence (viability) vs pre-drug, coculture with fibroblast (fraction); higher = more viable cancer cells
Conditions: 100 µM
Procedure: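 JC-1 labelled TNBC cells cocultured 1:1 (1,500 cells each) with CellTrace Violet stained primary or stromal fibroblasts in 384-well plates in FluoroBrite medium, treated with one of 42 anticancer drugs at 0.1, 1, 10 or 100 uM. JC-1 red fluorescence (mitochondrial integrity in cancer cells only) was read by plate reader every 8 h for 72 h. Values are normalised to each well's pre-drug value. The stock of one drug was tenfold lower, so its dose labels may be too high.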

CO[C@H]1C[C@@H]2CC[C@@H](C)[C@@](O)(O2)C(=O)C(=O)N2CCCC[C@H]2C(=O)O[C@H]([C@H](C)C[C@@H]2CC[C@@H](OCCO)[C@H](OC)C2)CC(=O)[C@H](C)/C=C(\C)[C@@H](O)[C@@H](OC)C(=O)[C@H](C)C[C@H](C)/C=C/C=C/C=C/1C [Everolimus]
relative JC-1 red fluorescence
Conditions | 8 h | 16 h | 24 h | 32 h | 40 h | 48 h | 56 h | 64 h | 72 h
coculture fibroblast: C12385 | 0.878 | 0.836 | 0.645 | 0.475 | 0.392 | 0.389 | 0.394 | 0.422 | 0.448
coculture fibroblast: H6013 | 0.834 | 0.854 | 0.826 | 0.817 | 0.862 | 0.79 | 0.691 | 0.688 | 0.7
coculture fibroblast: H6019 | 0.906 | 0.787 | 0.861 | 0.733 | 0.629 | 0.575 | 0.541 | 0.544 | 0.565
coculture fibroblast: H6076 | 0.727 | 0.769 | 0.818 | 0.822 | 0.669 | 0.58 | 0.609 | 0.649 | 0.698
coculture fibroblast: H6231 | 0.798 | 0.781 | 0.888 | 0.801 | 0.94 | 0.762 | 0.752 | 0.778 | 0.829
coculture fibroblast: HADF | 0.83 | 0.833 | 0.8601 | 0.859 | 0.864 | 0.783 | 0.703 | 0.788 | 0.73
coculture fibroblast: HCFa | 0.843 | 0.814 | 0.852 | 0.887 | 0.7947 | 0.812 | 0.783 | 0.747 | 0.74
coculture fibroblast: HCPF | 0.815 | 0.782 | 0.751 | 0.877 | 0.722 | 0.578 | 0.548 | 0.57 | 0.61
coculture fibroblast: HHSteC | 0.936 | 0.874 | 0.9263 | 0.792 | 0.7103 | 0.789 | 0.825 | 0.881 | 0.863
coculture fibroblast: HMF | 0.75 | 0.739 | 0.833 | 0.8499 | 0.75 | 0.637 | 0.571 | 0.579 | 0.6
coculture fibroblast: HPFa | 0.858 | 0.8406 | 0.7077 | 0.865 | 0.813 | 0.898 | 0.896 | 0.86 | 0.749
coculture fibroblast: HUF | 0.759 | 0.885 | 0.887 | 0.695 | 0.567 | 0.46 | 0.434 | 0.443 | 0.463
coculture fibroblast: Hs5 | 0.937 | 0.8983 | 0.881 | 0.662 | 0.5732 | 0.486 | 0.518 | 0.53 | 0.56
coculture fibroblast: Hs27A | 0.862 | 0.93 | 0.887 | 0.801 | 0.945 | 0.922 | 0.82 | 0.789 | 0.757
coculture fibroblast: Hs343T | 0.83 | 0.795 | 0.755 | 0.846 | 0.806 | 0.707 | 0.704 | 0.76461 | 0.8353
coculture fibroblast: WS1 | 0.859 | 0.84 | 0.805 | 0.642 | 0.527 | 0.459 | 0.43 | 0.424 | 0.444

From the supplement of paper PMC6078165
